PubChem BioAssay AID652243 – Drosophila RNAi Screening Center – 2013

- Assay: 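Knock-downs that decrease or increase androgen receptor reporter signal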 (primary screen)
- System: Drosophila S2R+ cells
- Reagent: long dsRNA against Drosophila genes
- Time to read-out: 72 h (48 h, then 24 h hormone)
- Challenge: synthetic androgen R1881 at 10 nM for 24 h
- Measured: 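Per-well raw luminescence of the androgen-driven firefly reporter and of the Renilla control, two replicates each, without normalisation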
- Reading the numbers: firefly reporter light: higher = more light from androgen-responsive reporter; Renilla control light: higher = more constitutive control signal (cell number, transfection)
- Active means: 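Across duplicate plates, a knock-down whose log firefly/Renilla ratio shifted a set fold down or up from the GFP/LacZ control mean was a hit; the downward cut appears as both 1.5 and 3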
- Calls: active = hit: reporter lowered or raised; inactive = no hit
The screen tested about 24,000 reagents; shown is an unselected part of those that have a named target and a result. Of all reagents, 246 (1%) were called active. 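Plates not normalised; calls are printed but the firefly/Renilla ratio behind them is not deposited; fold cut for lowering reported inconsistently.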 Raw values vary from plate to plate and are shown uncorrected. Not given: the amount of reagent.

With ATP7 (GeneID 32142) [DRSC19819], what was measured?
firefly reporter light, replicate 1: 4.21e5; firefly reporter light, replicate 2: 5.03e5; Renilla control light, replicate 1: 2.66e6; Renilla control light, replicate 2: 2.77e6; call: inactive

Which result is listed for sle (GeneID 41262) [DRSC14557]?
firefly reporter light, replicate 1: 76549; firefly reporter light, replicate 2: 24105; Renilla control light, replicate 1: 8.43e5; Renilla control light, replicate 2: 4.44e5; call: inactive

How did the screen score CG4278 (GeneID 34970) [DRSC02741]?
firefly reporter light, replicate 1: 8.56e5; firefly reporter light, replicate 2: 1.29e6; Renilla control light, replicate 1: 1.84e6; Renilla control light, replicate 2: 1.83e6; call: inactive

For CG4891 (GeneID 34948) [DRSC01936], how do the results read?
firefly reporter light, replicate 1: 8.46e5; firefly reporter light, replicate 2: 9.45e5; Renilla control light, replicate 1: 1.64e6; Renilla control light, replicate 2: 1.89e6; call: inactive

What did the screen give for CG4891 (GeneID 34948) [DRSC24341]?
firefly reporter light, replicate 1: 6.49e5; firefly reporter light, replicate 2: 6.37e5; Renilla control light, replicate 1: 7.45e5; Renilla control light, replicate 2: 8.64e5; call: inactive

For Wdr33 (GeneID 40698) [DRSC12162], what does the deposit list?
firefly reporter light, replicate 1: 64649; firefly reporter light, replicate 2: 78523; Renilla control light, replicate 1: 7.25e5; Renilla control light, replicate 2: 6.18e5; call: inactive

With Wdr33 (GeneID 40698) [DRSC27065], how do the results read?
firefly reporter light, replicate 1: 2.73e5; firefly reporter light, replicate 2: 2.32e5; Renilla control light, replicate 1: 6.01e5; Renilla control light, replicate 2: 4.44e5; call: inactive

For ms(3)76Cc (GeneID 40142) [DRSC11071], how do the results read?
firefly reporter light, replicate 1: 2.85e5; firefly reporter light, replicate 2: 2.24e5; Renilla control light, replicate 1: 1.82e6; Renilla control light, replicate 2: 2.14e6; call: inactive

What did the screen give for ms(3)76Cc (GeneID 40142) [DRSC21630]?
firefly reporter light, replicate 1: 1.85e5; firefly reporter light, replicate 2: 1.35e5; Renilla control light, replicate 1: 2.43e6; Renilla control light, replicate 2: 1.95e6; call: inactive

For wupA (GeneID 32794) [DRSC20385], what was measured?
firefly reporter light, replicate 1: 5.18e5; firefly reporter light, replicate 2: 6.41e5; Renilla control light, replicate 1: 2.89e6; Renilla control light, replicate 2: 3.78e6; call: inactive

Which result is listed for wupA (GeneID 32794) [DRSC22547]?
firefly reporter light, replicate 1: 5.80e5; firefly reporter light, replicate 2: 7.58e5; Renilla control light, replicate 1: 9.14e5; Renilla control light, replicate 2: 1.42e6; call: inactive

With wupA (GeneID 32794) [DRSC29330], how do the results read?
firefly reporter light, replicate 1: 4.72e5; firefly reporter light, replicate 2: 5.72e5; Renilla control light, replicate 1: 1.78e6; Renilla control light, replicate 2: 1.78e6; call: inactive

For CG10433 (GeneID 37458) [DRSC04068], what was measured?
firefly reporter light, replicate 1: 5.00e5; firefly reporter light, replicate 2: 9.34e5; Renilla control light, replicate 1: 1.60e6; Renilla control light, replicate 2: 3.13e6; call: inactive

With CG10433 (GeneID 37458) [DRSC26255], what does the deposit list?
firefly reporter light, replicate 1: 4.53e5; firefly reporter light, replicate 2: 3.47e5; Renilla control light, replicate 1: 7.04e5; Renilla control light, replicate 2: 6.79e5; call: inactive

What did the screen give for dUTPase (GeneID 34529) [DRSC01998]?
firefly reporter light, replicate 1: 8.04e5; firefly reporter light, replicate 2: 7.12e5; Renilla control light, replicate 1: 2.96e6; Renilla control light, replicate 2: 2.64e6; call: inactive

With dUTPase (GeneID 34529) [DRSC29469], what does the deposit list?
firefly reporter light, replicate 1: 4.82e5; firefly reporter light, replicate 2: 6.15e5; Renilla control light, replicate 1: 8.60e5; Renilla control light, replicate 2: 8.60e5; call: inactive

Which result is listed for Cog6 (GeneID 35953) [DRSC06806]?
firefly reporter light, replicate 1: 1.06e6; firefly reporter light, replicate 2: 1.24e6; Renilla control light, replicate 1: 1.61e6; Renilla control light, replicate 2: 1.73e6; call: inactive

For Cog6 (GeneID 35953) [DRSC29566], what was measured?
firefly reporter light, replicate 1: 7.07e5; firefly reporter light, replicate 2: 3.72e5; Renilla control light, replicate 1: 1.08e6; Renilla control light, replicate 2: 1.08e6; call: inactive

How did the screen score CG34300 (GeneID 5740334) [DRSC38807]?
firefly reporter light, replicate 1: 8.99e5; firefly reporter light, replicate 2: 9.18e5; Renilla control light, replicate 1: 2.00e6; Renilla control light, replicate 2: 1.92e6; call: inactive

For Pdhb (GeneID 43437) [DRSC14420], how do the results read?
firefly reporter light, replicate 1: 1.51e5; firefly reporter light, replicate 2: 1.04e5; Renilla control light, replicate 1: 9.85e5; Renilla control light, replicate 2: 7.16e5; call: inactive

What did the screen give for Pdhb (GeneID 43437) [DRSC29695]?
firefly reporter light, replicate 1: 4.23e5; firefly reporter light, replicate 2: 2.95e5; Renilla control light, replicate 1: 1.81e6; Renilla control light, replicate 2: 1.18e6; call: inactive

How did the screen score Pdhb (GeneID 43437) [DRSC39078]?
firefly reporter light, replicate 1: 9.89e5; firefly reporter light, replicate 2: 9.84e5; Renilla control light, replicate 1: 1.99e6; Renilla control light, replicate 2: 2.80e6; call: inactive

For CG13917 (GeneID 38186) [DRSC08386], how do the results read?
firefly reporter light, replicate 1: 6.03e5; firefly reporter light, replicate 2: 5.33e5; Renilla control light, replicate 1: 1.83e6; Renilla control light, replicate 2: 1.65e6; call: inactive

What is on record for CG13917 (GeneID 38186) [DRSC26895]?
firefly reporter light, replicate 1: 3.11e5; firefly reporter light, replicate 2: 3.05e5; Renilla control light, replicate 1: 8.93e5; Renilla control light, replicate 2: 8.08e5; call: inactive

For CG14075 (GeneID 40071) [DRSC10080], what was measured?
firefly reporter light, replicate 1: 2.47e5; firefly reporter light, replicate 2: 3.38e5; Renilla control light, replicate 1: 1.99e6; Renilla control light, replicate 2: 2.79e6; call: inactive

For RfC3 (GeneID 34423) [DRSC03411], how do the results read?
firefly reporter light, replicate 1: 2.01e5; firefly reporter light, replicate 2: 1.75e5; Renilla control light, replicate 1: 1.24e6; Renilla control light, replicate 2: 1.23e6; call: inactive

How did the screen score CG32373 (GeneID 318000) [DRSC08895]?
firefly reporter light, replicate 1: 77469; firefly reporter light, replicate 2: 86201; Renilla control light, replicate 1: 3.48e5; Renilla control light, replicate 2: 3.59e5; call: inactive

What is on record for CG32373 (GeneID 318000) [DRSC36984]?
call: inactive

With CG32373 (GeneID 318000) [DRSC36985], what was measured?
call: inactive

3 entries already listed, sorted by “firefly reporter light, replicate 1”, descending:
CG34300 (GeneID 5740334) [DRSC38807]: firefly reporter light, replicate 1 = 8.99e5; firefly reporter light, replicate 2 = 9.18e5; Renilla control light, replicate 1 = 2.00e6; Renilla control light, replicate 2 = 1.92e6; call = inactive
Cog6 (GeneID 35953) [DRSC29566]: firefly reporter light, replicate 1 = 7.07e5; firefly reporter light, replicate 2 = 3.72e5; Renilla control light, replicate 1 = 1.08e6; Renilla control light, replicate 2 = 1.08e6; call = inactive
Pdhb (GeneID 43437) [DRSC14420]: firefly reporter light, replicate 1 = 1.51e5; firefly reporter light, replicate 2 = 1.04e5; Renilla control light, replicate 1 = 9.85e5; Renilla control light, replicate 2 = 7.16e5; call = inactive
